The values that follow come from paper PMC10731243.

Chains of the proteins cited; added tags and fusions are not shown.
UniProt A0MES8: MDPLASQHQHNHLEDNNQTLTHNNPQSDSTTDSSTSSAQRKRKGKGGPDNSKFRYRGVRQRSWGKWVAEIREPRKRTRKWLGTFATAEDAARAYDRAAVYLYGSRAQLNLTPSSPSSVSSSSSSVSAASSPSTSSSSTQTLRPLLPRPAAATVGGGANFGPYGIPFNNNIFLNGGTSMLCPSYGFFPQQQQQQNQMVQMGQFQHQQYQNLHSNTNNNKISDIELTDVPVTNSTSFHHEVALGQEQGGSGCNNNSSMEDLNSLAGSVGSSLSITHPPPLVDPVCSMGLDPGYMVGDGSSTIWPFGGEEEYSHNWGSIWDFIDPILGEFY

Results are given in words; binding and its absence hold for the method and conditions named. In cells and extracts the contact can be indirect. Sequences can lack the tags named with a protein.

The assay has as its target abscisic acid insensitive 4 (ABI4) (Arabidopsis (endogenous in 35S:EX1-GFP seedlings)) (UniProt A0MES8). The experiment in a line: co-IP; nuclear proteins of 35S:EX1-GFP seedlings (5 days dark, then 100 uM Rose Bengal in white light for 0 or 30 min) in Co-IP buffer (100 mM NaCl, 10 mM Tris-HCl, 10 mM MgCl2, 1 mM EDTA, 5% glycerol, 1% Triton X-100, 0.4% NP-40, pH 7.5); precipitated with anti-GFP-agarose or anti-ABI4-agarose beads, 1 h at 4 °C; blotted with anti-GFP or anti-ABI4.

B1: EX1-GFP (executer 1 fused to GFP, from 35S:EX1-GFP transgenic plants) (protein, UniProt Q93YW0 47-684)
chain: CSSSSGSNSSSSSSSDDNPRWDSAIQDVLKSAIKRFDSVLSWYATLDNDDGEQGSENVEKIDDDWDWDRWKKHFDQVDDQDRLLSVLKSQLNRAIKREDYEDAARLKVAIAATATNDAVGKVMSTFYRALLEERYKDAVYLRDKAGAGLVGWWSGISEDVKDPFGLIVQITAEHGRYVARSYNPRQLSTSAAGAPLFEIFLTLDGKGNYKKQAVYLKWKEIFPDVPTMPSRTLTPGRFLTSPGRKEDTGNLAVESSEDEESDNSDDDSDLLEESSGFQSFLRDMIPGVKVKVMKVTAPGRVDKDFISKVIEQIADEEDEENDLDIEDIDVEDDTKAEIDEKNADIELESVTDEIIDNNGGREIAVKFVIGDIVDRLSGNQPLKESLRSPANLESVENSSFYLRLEKDLNVKESKGVEGTTLVDGKGSRQSRRRIENIMGDLAKSIEKEKKISVKMLKDVGELLSLTLSQAQNRQQLSGLTKFRRIDVTPSLDPLDGLYIGAHGLYTSEVIHLKRKFGQWKGGKESKKPTDIEFYEYVEAVKLTGDPYVPAGKVAFRAKIGRRYELPHKGLIPEEFGVIARYKGQGRLADPGFRNPRWVDGELVILDGKYVKGGPVVGFVYWAPEYHFVMFFNRLRLQA
B1: the binding result is on record as “no binding”.
